Test results as given in patent US20250283049A1, “AGENT FOR CULTURING ORGANOID IN ABSENCE OF EXTRACELLULAR MATRIX” (KEIO UNIVERSITY, priority 2022, published 2025).

Columns and labels:
[1] = test system: human lower gastrointestinal organoids; assay: Organoid morphology by immunostaining; organoids established in Matrigel, cultured without Matrigel with Lats-IN; assay type: cell-based; conditions: absence of Matrigel; Lats-IN 10 μM
[2] = test system: human large intestine-derived organoids; assay: Morphology by immunostaining of organoids established without Matrigel with Lats-IN, 18 passages; assay type: cell-based; conditions: established without Matrigel with Lats-IN 10 μM, day 7

Compound: O=C(N=c1sccn1Cc1ccccc1)c1c[nH]c2ncccc12 [Lats-IN]
- expression of stem cell and differentiated cell markers [1]: confirmed to express not only the stem cell marker Lgr5, but also the Paneth cell marker lysozyme, the embryonic cell marker Mucin 2, and the enteroendocrine cell marker chromogranin A
- expression of differentiated cell markers [2]: confirmed to express the embryonic cell marker Mucin 2 and the enteroendocrine cell marker chromogranin A
